This passage reports binding results from PMC12700825.

Chains of the proteins cited; added tags and fusions are not shown.
UniProt P63073: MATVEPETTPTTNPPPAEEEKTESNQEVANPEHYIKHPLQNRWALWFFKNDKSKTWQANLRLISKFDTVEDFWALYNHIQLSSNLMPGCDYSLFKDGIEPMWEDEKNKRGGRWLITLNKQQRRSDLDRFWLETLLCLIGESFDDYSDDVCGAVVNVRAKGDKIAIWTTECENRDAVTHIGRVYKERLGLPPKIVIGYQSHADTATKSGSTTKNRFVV
UniProt Q7TMB8: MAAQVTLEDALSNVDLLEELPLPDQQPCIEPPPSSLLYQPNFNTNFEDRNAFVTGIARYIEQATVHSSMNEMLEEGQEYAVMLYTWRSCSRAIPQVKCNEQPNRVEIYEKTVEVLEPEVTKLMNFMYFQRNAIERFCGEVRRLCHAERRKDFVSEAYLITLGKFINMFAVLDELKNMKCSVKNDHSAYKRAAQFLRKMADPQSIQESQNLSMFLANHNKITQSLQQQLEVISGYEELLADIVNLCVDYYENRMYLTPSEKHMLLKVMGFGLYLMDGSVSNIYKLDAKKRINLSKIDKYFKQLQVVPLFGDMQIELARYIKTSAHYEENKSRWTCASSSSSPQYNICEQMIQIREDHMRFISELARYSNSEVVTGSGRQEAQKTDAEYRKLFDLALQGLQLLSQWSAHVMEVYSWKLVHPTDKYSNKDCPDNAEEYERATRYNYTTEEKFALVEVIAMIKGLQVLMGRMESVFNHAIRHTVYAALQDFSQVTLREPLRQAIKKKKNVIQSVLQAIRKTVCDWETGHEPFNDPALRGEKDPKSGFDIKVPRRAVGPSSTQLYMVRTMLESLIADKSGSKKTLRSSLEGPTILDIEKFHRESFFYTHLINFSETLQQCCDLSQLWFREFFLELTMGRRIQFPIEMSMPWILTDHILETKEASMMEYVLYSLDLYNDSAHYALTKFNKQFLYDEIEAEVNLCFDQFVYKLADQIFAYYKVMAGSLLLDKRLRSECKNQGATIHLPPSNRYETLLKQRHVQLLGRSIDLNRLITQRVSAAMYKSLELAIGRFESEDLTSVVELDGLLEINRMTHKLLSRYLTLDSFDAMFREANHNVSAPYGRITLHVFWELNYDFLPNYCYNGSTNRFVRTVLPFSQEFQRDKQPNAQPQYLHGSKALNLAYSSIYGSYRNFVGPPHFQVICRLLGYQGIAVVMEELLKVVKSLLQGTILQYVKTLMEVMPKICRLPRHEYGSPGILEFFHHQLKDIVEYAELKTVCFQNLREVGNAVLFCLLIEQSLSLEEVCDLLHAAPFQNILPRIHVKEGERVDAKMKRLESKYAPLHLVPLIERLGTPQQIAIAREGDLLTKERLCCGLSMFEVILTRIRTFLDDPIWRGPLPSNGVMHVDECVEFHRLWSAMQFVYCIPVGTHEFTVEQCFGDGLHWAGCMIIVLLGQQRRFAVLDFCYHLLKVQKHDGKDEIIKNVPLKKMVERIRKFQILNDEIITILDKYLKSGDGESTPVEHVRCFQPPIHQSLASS

Results are given in words; binding and its absence hold for the method and conditions named. Binding seen in cells or lysates may run through a third protein. Some entries that bind do so weakly or less than the wild type.

Experiment [1] concerns the target eukaryotic initiation factor 4E (eIF4E) (mouse (endogenous in hippocampus and primary hippocampal neurons)) (UniProt P63073). As to the kind of experiment: co-IP; lysates of primary hippocampal neurons with Eif4g1 shRNA or control shRNA precipitated with an anti-eIF4E antibody; blots for eIF4G1 and CYFIP1 (Supplemental Fig. 15).
Experiment [2] shares this target. As to the kind of experiment: co-IP; lysates of hippocampal tissue of WT and Fmr1 KO mice (vehicle or Rilmenidine) precipitated with an anti-eIF4E antibody overnight at 4 °C, Protein A/G agarose; blots for eIF4E, eIF4G1 and CYFIP1; naive IgG as negative control.

In the case of “cytoplasmic FMRP-interacting protein 1 (CYFIP1) (from UniProt Q7TMB8 1-1253)”, the binding result in experiment [1] and in experiment [2] was “binds” throughout.
